Among the data in article PMC9152322 are binding values, retold here.

The chains behind the UniProt entries cited, without tags or fusion partners.
UniProt P46937: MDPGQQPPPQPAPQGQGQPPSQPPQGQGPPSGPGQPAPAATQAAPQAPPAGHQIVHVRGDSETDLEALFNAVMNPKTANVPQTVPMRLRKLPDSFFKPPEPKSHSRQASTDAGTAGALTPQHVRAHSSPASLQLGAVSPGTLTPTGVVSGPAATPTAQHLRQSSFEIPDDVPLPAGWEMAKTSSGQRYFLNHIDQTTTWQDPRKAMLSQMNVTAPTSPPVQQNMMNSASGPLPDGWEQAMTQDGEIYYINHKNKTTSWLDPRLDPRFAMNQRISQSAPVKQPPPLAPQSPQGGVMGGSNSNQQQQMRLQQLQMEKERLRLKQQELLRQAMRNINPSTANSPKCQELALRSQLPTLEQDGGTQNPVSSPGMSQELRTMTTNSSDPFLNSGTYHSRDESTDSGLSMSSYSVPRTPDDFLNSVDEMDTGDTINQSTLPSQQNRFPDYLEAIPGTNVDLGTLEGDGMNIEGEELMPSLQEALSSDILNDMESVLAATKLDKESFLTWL
UniProt P09874: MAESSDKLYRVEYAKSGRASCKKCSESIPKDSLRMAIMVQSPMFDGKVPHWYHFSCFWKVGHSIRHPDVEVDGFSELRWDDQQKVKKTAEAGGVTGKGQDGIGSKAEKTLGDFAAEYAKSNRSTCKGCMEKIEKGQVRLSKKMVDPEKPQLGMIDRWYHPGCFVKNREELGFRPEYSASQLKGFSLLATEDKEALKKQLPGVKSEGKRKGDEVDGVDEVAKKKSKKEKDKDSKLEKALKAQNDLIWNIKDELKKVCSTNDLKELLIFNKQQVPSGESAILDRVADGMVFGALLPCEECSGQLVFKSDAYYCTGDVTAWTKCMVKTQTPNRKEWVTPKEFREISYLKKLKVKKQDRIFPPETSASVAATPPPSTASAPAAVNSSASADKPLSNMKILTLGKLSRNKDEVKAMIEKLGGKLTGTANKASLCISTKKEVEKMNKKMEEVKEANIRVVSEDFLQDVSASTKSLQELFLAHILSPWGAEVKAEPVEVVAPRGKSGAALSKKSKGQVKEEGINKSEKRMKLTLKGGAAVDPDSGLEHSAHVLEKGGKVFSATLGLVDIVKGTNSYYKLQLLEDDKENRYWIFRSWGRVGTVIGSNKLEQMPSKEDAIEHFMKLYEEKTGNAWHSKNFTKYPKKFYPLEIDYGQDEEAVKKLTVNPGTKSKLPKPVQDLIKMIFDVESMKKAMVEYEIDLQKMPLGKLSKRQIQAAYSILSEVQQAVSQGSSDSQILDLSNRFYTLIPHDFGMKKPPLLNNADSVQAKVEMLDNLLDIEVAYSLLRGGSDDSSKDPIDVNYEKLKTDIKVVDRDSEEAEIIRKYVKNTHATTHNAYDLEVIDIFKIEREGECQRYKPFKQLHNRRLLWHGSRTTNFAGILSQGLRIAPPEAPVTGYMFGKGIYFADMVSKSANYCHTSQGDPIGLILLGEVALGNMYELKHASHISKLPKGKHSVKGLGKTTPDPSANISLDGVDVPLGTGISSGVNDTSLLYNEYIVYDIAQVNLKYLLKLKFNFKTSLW

Results are given in words; binding and its absence hold for the method and conditions named. Binding seen in cells or lysates may run through a third protein. A yes stands for co-enrichment or nearness to the bait. Other partners may have been found.

The assay concerns the target Yes-associated protein 1 (YAP1) (human (endogenous in MV4-11)) (UniProt P46937). The assay is described as follows: affinity purification with mass spectrometry; anti-YAP1 or IgG antibody with protein A/G PLUS agarose on cell lysates (25 mM Tris-HCl pH 7.4, 150 mM NaCl, 1% NP-40, 1 mM EDTA), 16 h 4°C, five PBS washes, SDS-PAGE, Q Exactive LC/MS; control (NC) and YAP1-overexpressed (YO) MV4-11-SorR cells; Score Sequest HT ≥ 1.5, proteins of the IgG group removed.

In the case of “poly (ADP-ribose) polymerase 1 (PARP1) (from UniProt P09874 1-1014)”, the binding entry is listed as “binds”. In the case of “valosin-containing protein (VCP) (from UniProt P55072 1-806)” it was “binds”.
